In the supplement of paper PMC8256030:
Values joined by “and” are separate entries in the source; they are usually repeats but may differ in a detail not shown here. Equal values may be shown once. Where a name gives a salt, the structure may show the parent alone. The list shows a part of the results. Single values are uncertain here, since repeats match poorly.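 HEK293T cells were given each compound shortly before transfection with a reporter in which red mCherry is followed by the SARS-CoV-2 frameshift element and then GFP in the −1 frame, so GFP appears only after frameshifting.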

Tested on: SARS-CoV-2 -1 PRF reporter mCherry-FSE-GFP(-1)
Assay: percent effect, decrease of GFP/mCherry ratio (-1 PRF reporter) relative to controls; higher = stronger frameshift inhibition
Conditions: 10 µM; 24 h; HEK293T

Row | SMILES | percent effect
1 | CC[C@]1(O)C[C@H]2CN(CCc3c([nH]c4ccccc34)[C@@](C(=O)OC)(c3cc4c(cc3OC)N(C=O)[C@H]3[C@@](O)(C(=O)OC)[C@H](OC(C)=O)[C@]5(CC)C=CCN6CC[C@]43[C@@H]65)C2)C1 [Vincristine sulfate] | -5.64%
2 | C[C@@H](O[C@H]1OCCN(Cc2n[nH]c(=O)[nH]2)[C@H]1c1ccc(F)cc1)c1cc(C(F)(F)F)cc(C(F)(F)F)c1 [Emend] | -5.54%
3 | CC(CN(C)C)CN1c2ccccc2Sc2ccc(C#N)cc21 (stereo not given) [cyamemazine] | -1.5%
4 | CC(=O)Nc1c(I)c(NC(C)=O)c(I)c(C(=O)O)c1I [sodium amidotrizoate] | -0.577%
5 | C[C@H](C#Cc1ccc(Cc2ccc(F)cc2)s1)N(O)C(N)=O [atreleuton] | -4.18%
6 | Cc1cc2c(cc1CC(=O)c1sccc1S(=O)(=O)Nc1onc(C)c1Cl)OCO2 [Sitaxentan] | -3.1%
7 | CCCCCCCCCCCCCCOS(=O)(=O)O [Sodium Tetradecyl Sulfate] | -4.39%
8 | OC[C@H]1O[C@@H](c2ccc(Cl)c(Cc3ccc(O[C@H]4CCOC4)cc3)c2)[C@H](O)[C@@H](O)[C@@H]1O [Empagliflozin] | 2.97%
9 | CC(C)CCC(=O)CC1c2ccccc2C(=O)N1c1ccc2ccc(Cl)nc2n1 (stereo not given) [pagoclone] | 1.22%
10 | CCN(CC)CCNC(=O)c1cc(S(C)(=O)=O)ccc1OC [tiapride] | 1.78%
11 | CC(=O)[C@@]1(O)CC[C@H]2[C@@H]3C=C(Cl)C4=CC(=O)CC[C@]4(C)[C@H]3CC[C@@]21C [chlormadinone] | -5.19%
12 | CCCC(CCC)C(N)=O [valpromide] | -5.6%
13 | CCCCCCCCCCCCCCCCNc1ccc(C(=O)O)cc1 [cetaben] | -10.8%
14 | CNC[C@H](O)c1ccc(O)c(O)c1 [epinephrine] | -2.03%
15 | CCNC(=O)[C@@H]1CCCN1C(=O)[C@H](CCCNC(=N)N)NC(=O)[C@H](CC(C)C)NC(=O)[C@@H](Cc1cn(Cc2ccccc2)cn1)NC(=O)[C@H](Cc1ccc(O)cc1)NC(=O)[C@H](CO)NC(=O)[C@H](Cc1c[nH]c2ccccc12)NC(=O)[C@H](Cc1cnc[nH]1)NC(=O)[C@@H]1CCC(=O)N1 [histrelin] | -3.62%
16 | COc1ccc(C2CNC(=O)NC2)cc1O[C@H]1C[C@@H]2CC[C@H]1C2 [atizoram] | -4.27%
17 | C[C@@H]1CC(=O)NN=C1c1ccc(NN=C(C#N)C#N)cc1 [levosimendan] | -12.6%
18 | NC(=O)C(c1ccccc1)(c1ccc(F)cc1)c1ccc(F)cc1 [senicapoc] | -1.83%
19 | O=C(O)CN(CCN(CC(=O)O)CC(=O)O)CCN(CC(=O)O)CC(=O)O [pentetic acid] | 2.79%
20 | CC(C)(C)NCC(O)COc1cccc2c1CCC(=O)N2 (stereo not given) | -3.26%

Row | SMILES | percent effect
21 | CC(C)OC(=O)CCC/C=C\C[C@@H]1[C@@H](/C=C/C(F)(F)COc2ccccc2)[C@H](O)C[C@@H]1O [Tafluprost] | -3.76%
22 | CCOCCn1cc(C(=O)Nc2ccc(-n3nc(-c4cccnc4)cc3C(F)(F)F)cn2)ccc1=O | -3.48%
23 | N[C@H](Cc1cc(I)c(Oc2cc(I)c(O)c(I)c2)c(I)c1)C(=O)O [Choloxin] | -3.11%
24 | Cc1ccnc2c1CCCC2C(N)=S (stereo not given) [isotiquimide] | 3.59%
25 | COc1cccc(CCc2ccccc2OCC(CN(C)C)OC(=O)CCC(=O)O)c1 (stereo not given) [sarpogrelate] | -3.25%
26 | N=C(N)c1ccc(N=NNc2ccc(C(=N)N)cc2)cc1 | -3.05%
27 | CO/N=C(\C(=O)N[C@@H]1C(=O)N2C(C(=O)O)=C(COC(C)=O)CS[C@H]12)c1csc(N)n1 [Claforan] | -3.21%
28 | O=C(c1cccnc1)N1CCOCC1 [nicopholine] | 2.64%
29 | CC(=O)OCC(=O)[C@@]1(O)CC[C@H]2[C@@H]3CCC4=CC(=O)C=C[C@]4(C)[C@@]3(F)[C@@H](O)C[C@@]21C | 1.49%
30 | CCCOc1cc(N)ccc1C(=O)OCCN(CC)CC [propoxycaine] | -1.97%
31 | Cc1nc(-c2ccc(OCC(C)C)c(C#N)c2)sc1C(=O)O [febuxostat] | -0.936%
32 | CC(O)Cn1cnc2c1c(=O)n(C)c(=O)n2C (stereo not given) [proxyphylline] | -1.2%
33 | CN1C(=O)CC(c2ccccc2)C1=O (stereo not given) [phensuximide] | -0.146%
34 | COCC1=C(C(=O)OC(C)OC(=O)OC(C)C)N2C(=O)[C@@H](NC(=O)/C(=N\OC)c3csc(N)n3)[C@H]2SC1 (stereo not given in full) | -7.1%
35 | O=NN(CCCl)C(=O)NCCCl [carmustine] | -0.349%
36 | CN1CCN(CC(=O)N2c3ccccc3C(=O)Nc3cccnc32)CC1 [pirenzepine] | -5.67% and 2.85%
37 | CO[C@@H]1[C@@H](OC(=O)c2ccc(C)[nH]2)[C@@H](O)[C@@H](Oc2ccc3c(O)c(NC(=O)c4c[nH]c(C(=O)Nc5c(O)c6ccc(O[C@H]7OC(C)(C)[C@H](OC)[C@@H](OC(=O)c8ccc(C)[nH]8)[C@H]7O)c(C)c6oc5=O)c4C)c(=O)oc3c2C)OC1(C)C [coumamycin] | -21%
38 | NC(N)=NCCCC(N)C(=O)O (stereo not given) | -1.51%
39 | CC(C)(C)C(=O)OCOP(=O)(COCCn1cnc2c(N)ncnc21)OCOC(=O)C(C)(C)C [Hepsera] | 5.72%
40 | CC(C(=O)O)c1ccc(N2Cc3ccccc3C2=O)cc1 (stereo not given) [indoprofen] | -2.55%

Of the compounds above, 2 contain a thiophene ring, fused or not:
Row | SMILES | percent effect
5 | C[C@H](C#Cc1ccc(Cc2ccc(F)cc2)s1)N(O)C(N)=O [atreleuton] | -4.18%
6 | Cc1cc2c(cc1CC(=O)c1sccc1S(=O)(=O)Nc1onc(C)c1Cl)OCO2 [Sitaxentan] | -3.1%
